The test system of the test is L1210 leukemia ip in BDF1 mice, survival T/C. Put plainly: NCI In Vivo Anticancer Drug Screen. Data for tumor model L1210 Leukemia (intraperitoneal) in B6D2F1 (BDF1) mice. As to conditions: higher T/C = longer survival.
Setting [1] is: T/C endpoint: mean survival time, dose: 400.0 mg/kg/injection, schedule: Q01DX001 (ip), vehicle: saline.

The list is a part of this screen's results and no random one: it is rich in T/C values a quarter to a half above the control, in often repeated tests (any T/C) and in doses without a T/C. Further doses and runs are listed elsewhere. T/C is the treated group as % of the vehicle group. Some entries give survivors of the animals treated and no T/C: the source holds a T/C of zero for them, seemingly a mark for toxic or unscored doses. Some doses without a T/C left all or most animals alive at the check, yet need not have been tolerated: the source hardly ever lists a survival T/C far under the control, and the zero likely stands for such cases as well. Counts of survivors are from the toxicity check (mostly the fifth day) where no day follows; animals may have died later. Schedules are NCI's codes, read here as Q, the interval in days (D) or hours (H), X, the number of doses. Some schedules carry Z or #; the key to these is not given. For survival time, the PubChem record calls one and a half times the control and up active, and a quarter to a half above the control has no call in these data; cut-offs in other NCI protocols can differ. Some doses were run more than once; their values stand side by side, smallest first. Some T/C values carry the count of animals alive at the toxicity check (mostly the fifth day); where none is given, no animal had died by that day.

Regarding `O=CC(=O)c1ccc(O)cc1`, the survivor count (T/C endpoint: mean survival time, dose: 200.0 mg/kg/injection, schedule: Q01DX009 (ip), vehicle: saline sonified) is listed as 3 of 6.
In the case of `CC(C)Cc1ccc(C(C)C(=O)O)cc1` (stereo unspecified), under setting [1], the survivor count was 3 of 3.
For the compound `Cc1cc(C2=NCCN2)ccc1NC(=O)c1ccc(C(=O)Nc2ccc(C3=NCCN3)cc2C)cc1`, the survivor count (T/C endpoint: mean survival time, dose: 120.0 mg/kg/injection, schedule: Q01DX Z (ip), vehicle: saline) is listed as 3 of 6.
Regarding `CON(C)S(=O)(=O)c1ccc([N+](=O)[O-])cc1`, the survivor count (T/C endpoint: mean survival time, dose: 400.0 mg/kg/injection, schedule: Q01DX001 (ip), vehicle: Klucel (hydroxypropylcellulose) (HPC)) is reported as 1 of 6.
Consider `Cc1c2ccccc2c(C)c2c1ccc1ccccc12`, for which the T/C is, setting by setting: (T/C endpoint: mean survival time, dose: 12.37 mg/kg/injection, schedule: Q04DX003 (ip), vehicle: saline) 136 % of control; (T/C endpoint: mean survival time, dose: 12.5 mg/kg/injection, schedule: Q01DX001 (ip), vehicle: acetone) 126 % of control; (T/C endpoint: mean survival time, dose: 16.5 mg/kg/injection, schedule: Q01DX001 (ip), vehicle: acetone) 141 % of control; (T/C endpoint: mean survival time, dose: 18.75 mg/kg/injection, schedule: Q04DX003 (ip), vehicle: saline with Tween-80) 137 % of control; (T/C endpoint: mean survival time, dose: 18.75 mg/kg/injection, schedule: Q04DX003 (ip), vehicle: saline) 143 % of control; (T/C endpoint: mean survival time, dose: 25.0 mg/kg/injection, schedule: Q01DX001 (ip), vehicle: acetone) 131 and 147 % of control. Moreover, the T/C was 130 % of control (T/C endpoint: mean survival time, dose: 28.12 mg/kg/injection, schedule: Q04DX003 (ip), vehicle: saline with Tween-80); 130 % of control (T/C endpoint: mean survival time, dose: 28.12 mg/kg/injection, schedule: Q04DX003 (ip), vehicle: saline); 145 % of control (T/C endpoint: mean survival time, dose: 37.5 mg/kg/injection, schedule: Q01DX001 (ip), vehicle: acetone).
On to `O=NN(CCCl)C(=O)Nc1ccc(I)cc1`, for which the T/C by setting is: (T/C endpoint: mean survival time, dose: 5.6 mg/kg/injection, schedule: Q01DX009 (ip), vehicle: carboxymethylcellulose (CMC)) 130 % of control; (T/C endpoint: mean survival time, dose: 12.6 mg/kg/injection, schedule: Q01DX009 (ip), vehicle: carboxymethylcellulose (CMC)) 147 % of control; (T/C endpoint: mean survival time, dose: 19.0 mg/kg/injection, schedule: Q01DX009 (ip), vehicle: carboxymethylcellulose (CMC), evaluated on day 30) 133 % of control; (T/C endpoint: mean survival time, dose: 19.0 mg/kg/injection, schedule: Q01DX009 (ip), vehicle: carboxymethylcellulose (CMC), run until all animals had died) 147 % of control; (T/C endpoint: mean survival time, dose: 26.0 mg/kg/injection, schedule: Q01DX001 (ip), vehicle: carboxymethylcellulose (CMC)) 132 % of control; (T/C endpoint: mean survival time, dose: 29.0 mg/kg/injection, schedule: Q01DX009 (ip), vehicle: carboxymethylcellulose (CMC)) 149 % of control. In addition, the T/C runs as follows: (T/C endpoint: mean survival time, dose: 40.0 mg/kg/injection, schedule: Q01DX001 (ip), vehicle: carboxymethylcellulose (CMC), evaluated on day 30) 125 % of control; (T/C endpoint: mean survival time, dose: 40.0 mg/kg/injection, schedule: Q01DX001 (ip), vehicle: carboxymethylcellulose (CMC), run until all animals had died) 135 % of control; (T/C endpoint: mean survival time, dose: 44.0 mg/kg/injection, schedule: Q01DX009 (ip), vehicle: carboxymethylcellulose (CMC)) 135 % of control; (T/C endpoint: mean survival time, dose: 60.0 mg/kg/injection, schedule: Q01DX001 (ip), vehicle: carboxymethylcellulose (CMC)) 127 % of control; (T/C endpoint: mean survival time, dose: 89.0 mg/kg/injection, schedule: Q01DX001 (ip), vehicle: carboxymethylcellulose (CMC)) 144 % of control; (T/C endpoint: mean survival time, dose: 133.0 mg/kg/injection, schedule: Q01DX001 (ip), vehicle: carboxymethylcellulose (CMC), evaluated on day 30) 142 % of control. The T/C reads like this: (T/C endpoint: mean survival time, dose: 133.0 mg/kg/injection, schedule: Q01DX001 (ip), vehicle: carboxymethylcellulose (CMC), run until all animals had died) 138 % of control; (T/C endpoint: mean survival time, dose: 200.0 mg/kg/injection, schedule: Q01DX001 (ip), vehicle: carboxymethylcellulose (CMC)) 144 % of control; (T/C endpoint: mean survival time, dose: 300.0 mg/kg/injection, schedule: Q01DX001 (ip), vehicle: carboxymethylcellulose (CMC), evaluated on day 30) 147 % of control; (T/C endpoint: mean survival time, dose: 300.0 mg/kg/injection, schedule: Q01DX001 (ip), vehicle: carboxymethylcellulose (CMC), run until all animals had died) 143 % of control. Besides, the survivor count (T/C endpoint: mean survival time, dose: 100.0 mg/kg/injection, schedule: Q01DX009 (ip), vehicle: carboxymethylcellulose (CMC)) is listed as 6 of 6.
For the compound `O=C(CC(O)C(Cl)(Cl)Cl)CC(O)C(Cl)(Cl)Cl` (stereo unspecified), the survivor count (T/C endpoint: mean survival time, dose: 400.0 mg/kg/injection, schedule: Q04DX002 (ip), vehicle: saline) is 1 of 3.
Take `Cc1ccc2c(n1)Nc1ncnc(N)c1S2`: the survivor count was 3 of 3 (T/C endpoint: mean survival time, dose: 50.0 mg/kg/injection, schedule: Q04DX003 (ip), vehicle: Klucel (hydroxypropylcellulose) (HPC)); 0 of 6 (T/C endpoint: mean survival time, dose: 100.0 mg/kg/injection, schedule: Q04DX003 (ip), vehicle: carboxymethylcellulose (CMC)); 0 of 6 (T/C endpoint: mean survival time, dose: 200.0 mg/kg/injection, schedule: Q04DX003 (ip), vehicle: carboxymethylcellulose (CMC)); 0 of 6 (T/C endpoint: mean survival time, dose: 400.0 mg/kg/injection, schedule: Q04DX003 (ip), vehicle: carboxymethylcellulose (CMC)).
Turning to `CC1(C)N=C(N)N=C(N)N1NC(=O)c1ccc(F)cc1`, the survivor count (T/C endpoint: mean survival time, dose: 400.0 mg/kg/injection, schedule: Q01DX009 (ip), vehicle: saline) is given as 3 of 6.
Consider `O=CN(N=O)c1ccccc1`, for which the survivor count is 0 of 6 (T/C endpoint: mean survival time, dose: 75.0 mg/kg/injection, schedule: Q01DX001 (ip), vehicle: other) and 3 of 6 (T/C endpoint: mean survival time, dose: 150.0 mg/kg/injection, schedule: Q01DX001 (ip), vehicle: other).
`O=C(O)c1c2ccccc2nc2ccccc12`: the survivor count is 0 of 4 (T/C endpoint: mean survival time, dose: 200.0 mg/kg/injection, schedule: Q01DX001 (ip), vehicle: saline) and 0 of 4 under setting [1].
On to `C#CCNc1c(C)cccc1C`, for which the survivor count reads like this: (T/C endpoint: mean survival time, dose: 400.0 mg/kg/injection, schedule: Q01DX009 (ip), vehicle: Klucel (hydroxypropylcellulose) (HPC)) 0 of 6; (T/C endpoint: mean survival time, dose: 400.0 mg/kg/injection, schedule: Q04DX003 (ip), vehicle: Klucel (hydroxypropylcellulose) (HPC)) 2 of 6.
On to `CCOC(=O)c1[nH]c(C)nc1/N=N/N(C)C`, for which the T/C was 127 % of control (T/C endpoint: median survival time, dose: 50.0 mg/kg/injection, schedule: Q01DX009 (ip), vehicle: Klucel (hydroxypropylcellulose) (HPC)); 133 % of control (T/C endpoint: median survival time, dose: 100.0 mg/kg/injection, schedule: Q01DX009 (ip), vehicle: Klucel (hydroxypropylcellulose) (HPC)); 144 % of control [5 of 6 alive] (T/C endpoint: median survival time, dose: 200.0 mg/kg/injection, schedule: Q01DX009 (ip), vehicle: Klucel (hydroxypropylcellulose) (HPC)).
Turning to `CC(CCC(=O)O)(c1cc(Cl)c(O)c(Cl)c1)c1cc(Cl)c(O)c(Cl)c1`, the survivor count (T/C endpoint: mean survival time, dose: 400.0 mg/kg/injection, schedule: Q01DX009 (ip), vehicle: gum acacia) was 3 of 6.
For `CN1CCC(CO)(c2ccccc2)C1` (stereo unspecified), the survivor count (T/C endpoint: mean survival time, dose: 300.0 mg/kg/injection, schedule: Q01DX001 (ip), vehicle: carboxymethylcellulose (CMC)) is on record as 0 of 6.
Take `O=C(Nc1ccccc1C(F)(F)F)Oc1ccc(Cl)cc1Cc1ccccc1`: the survivor count by setting is: (T/C endpoint: mean survival time, dose: 100.0 mg/kg/injection, schedule: Q01DX009 (ip), vehicle: saline with Tween-80) 6 of 6; (T/C endpoint: mean survival time, dose: 200.0 mg/kg/injection, schedule: Q01DX009 (ip), vehicle: saline with Tween-80) 6 of 6; (T/C endpoint: mean survival time, dose: 400.0 mg/kg/injection, schedule: Q01DX009 (ip), vehicle: saline with Tween-80) 6 of 6.
In the case of `C[N+](C)(Cc1ccccc1)C1c2ccccc2-c2ccc(Cl)cc21` (stereo unspecified), the survivor count (T/C endpoint: mean survival time, dose: 50.0 mg/kg/injection, schedule: Q04DX002 (ip), vehicle: saline with Tween-80) was 0 of 3.

Values taken from PubChem BioAssay AID248 (DTP/NCI, 2004).
